Structures can show the parent of a compound that is named as a salt. About 130 (2.5%) of roughly 5,300 compounds showed an effect of 50% or more. Some of the results follow. Square brackets hold non-standard residues; d marks the D form. Peptide text beside a SMILES is read from it. pGlu = O=C1CC[C@@H](C(=O)O)N1; Thz = O=C(O)[C@@H]1CSCN1
These molecules were tested on M. mycetomatis strain mm55. Conditions: primary screen, metabolic activity vs growth control; 96 h, 2 µM; inhibitor.

Point of comparison: `Nc1ncnc2c1ncn2[C@@H]1O[C@H](CO)[C@@H](O)[C@@H]1O` [ONC0003864, vidarabine], “% viability” value 78.11%. Against it:
- NCC(CC(=O)O)c1ccc(Cl)cc1 (centres unmarked) [ONC0003898, baclofen hydrochloride] — higher, 89.35%
- CCS(=O)(=O)N1CC(CC#N)(n2cc(-c3ncnc4[nH]ccc34)cn2)C1 [ONC0005100, baricitinib ly3009104] — lower, 65.39%
- CN(CCCN1c2ccccc2CCc2ccccc21)CC(=O)c1ccc(Cl)cc1 [ONC0003051, lofepramine] — higher, 107%
- NC[C@H](CC(=O)O)c1ccc(Cl)cc1 [ONC0004793, rbaclofen] — higher, 107.3%
- CC(C)(C)c1cc(C=C(C#N)C#N)cc(Br)c1O [ONC0004740, ag1024] — higher, 105.8%
- O=C(NCc1ccc(F)cc1)N1CCN2C(=O)OC(c3ccccc3)(c3ccccc3)C2C1 (centres unmarked) [ONC0000246, sha68] — lower, 68.69%
- Cc1cc2nc3c(=O)[nH]c(=O)nc-3n(C[C@H](O)[C@H](O)[C@H](O)CO)c2cc1C [ONC0003918, riboflavin] — lower, 77.01%
- O=C(O)CCc1ccc(NCc2cccc(Oc3ccccc3)c2)cc1 [ONC0002654, gw9508] — higher, 107.7%
- CC(=O)O[C@@H]1C[C@H]2C(C)(C)C(=O)C=C[C@]2(C)[C@H]2CC[C@@]3(C)[C@H](c4ccoc4)OC(=O)[C@H]4O[C@]43[C@@]21C [ONC0004077, gedunin] — higher, 121.6%
- CC(C)c1ccccc1Cc1cc(C(=O)Nc2ccc(S(=O)(=O)c3ccccc3C(C)(C)C)cc2)c(O)c(O)c1O [ONC0004623, tw37] — lower, 77.11%
- O=C(Cn1c(=O)sc2ccc(Cl)cc21)N1CCN(CCO)CC1 [ONC0002129, tiaramide] — lower, 71.3%
- CC1(C)OC[C@@H](COC(=O)CCc2ccc(OC[C@@H](O)CNCCNC(=O)N3CCOCC3)cc2)O1 [ONC0003362, landiolol hcl] — higher, 79.88%
- O=C1NC(=O)c2cc(Nc3ccccc3)c(Nc3ccccc3)cc21 [ONC0002702, cgp52411] — lower, 70.66%
- Cc1cc(-c2ccc3c(c2)CC[C@H]3N2CC3(CCN(C(=O)Cc4cn5cc(C)sc5n4)CC3)C2)ncn1 [ONC0005573, pf05190457] — higher, 84.6%
- Cc1[nH]cnc1CN1CCc2c(c3ccccc3n2C)C1=O [ONC0003507, alosetronhcl] — lower, 73.4%
- O=S(=O)(c1cccc2c(O)nccc12)N1CCCNCC1 [ONC0001395, hydroxyfasudil] — higher, 104.4%
- CC(C)NC(=O)N1CC[C@H](NC2=Nc3cc(F)ccc3N(CC(F)F)c3ccc(Cl)cc32)C1 [ONC0002259, nvspak11] — higher, 189.5%
- C=CC(=O)[O-].[Na+] [ONC0002646, sodium acrylate] — lower, 77.54%
- COCc1c[n+]([O-])c(C)cn1 [ONC0005343, proacipimox] — higher, 127.4%
- O=C1CC[C@@]2(O)[C@H]3Cc4ccc(O)c5c4[C@@]2(CCN3CC2CC2)[C@H]1O5 [ONC0003097, naltrexone hydrochloride] — lower, 75.74%
- CC12CCC(=O)C=C1CCC1C2[C@@H](O)CC2(C)C1CC[C@]2(O)C(=O)COP(=O)(O)O (some centres unmarked) [ONC0000361, hydrocortisone phosphate triethylamine] — higher, 86.07%
- N=C(Nc1ccccc1)c1cccs1 [ONC0003825, lta] — lower, 71.6%
- CC1CCN(CC[C@H]2CCCN2S(=O)(=O)c2cccc(O)c2)CC1 [ONC0001877, sb269970] — higher, 83.54%
- Cc1cc2c(cc1C(F)(F)F)N(C(=O)Nc1ccc(Oc3cccnc3C)nc1)CC2 [ONC0001698, sb243213] — lower, 69.79%
- C[C@@](Cc1ccc(O)c(O)c1)(NN)C(=O)O [ONC0004068, carbidopa] — higher, 120.3%
- C=CC(=O)Nc1cccc(Oc2nc(Nc3ccc(N4CCN(C)CC4)cc3)ncc2Cl)c1 [ONC0004716, wz3146] — higher, 99.4%
- O=c1[nH]cnc2nc[nH]c12 [ONC0004702, hypoxanthine] — higher, 102.1%
- CCOc1nc2cccc(C(=O)O)c2n1Cc1ccc(-c2ccccc2-c2nnn[nH]2)cc1 [ONC0004203, candesartan] — higher, 113.6%
- CC[C@H](C)[C@H](N)C(=O)O [ONC0003555, isoleucine] — higher, 110.6%
- CC(=O)SC[C@@H](C)C(=O)N1CCC[C@H]1C(=O)N[C@@H](Cc1ccccc1)C(=O)O [ONC0001975, alacepril] — lower, 73.05%
- NC[C@@H]1O[C@H](C23CC4CC(CC(C4)C2)C3)Cc2c1ccc(O)c2O [ONC0001735, a77636] — lower, 67.62%
- O=c1[nH]c2ccccc2n1CCN1CCN(c2cccc(C(F)(F)F)c2)CC1 [ONC0005440, flibanserin] — higher, 115.9%
- COc1cc2ncnc(Nc3cccc(Cl)c3F)c2cc1OC(=O)N1CCN(C)C[C@H]1C [ONC0001063, azd3759] — lower, 65.07%
- c1ccc(-c2ccc(C(c3ccccc3)n3ccnc3)cc2)cc1 (centres unmarked) [ONC0003890, bifonazole] — higher, 189.2%
- Oc1c(Cl)cc(Cl)c2cccnc12 [ONC0002821, chloroxine] — higher, 92.76%
- O=C1CC[C@@H](C(=O)N2CSC[C@H]2C(=O)O)N1 [ONC0004150, pidotimod] ([pGlu]-[Thz]-OH) — higher, 121.4%
- CCn1c(=O)c(-c2ccc(Cl)cc2Cl)cc2cnc(Nc3ccc(N4CCNCC4)c(F)c3)nc21 [ONC0000042, frax486] — higher, 82.48%
- COc1ccc(Cl)cc1NC(=O)Nc1cc(C)nc2ccccc12 [ONC0002997, pq401] — lower, 73.37%
- CN(C)CCC(c1ccc(Br)cc1)c1ccccn1 (centres unmarked) [ONC0002410, brompheniramine maleate] — higher, 81.1%
- COc1cc2ncnc(Nc3cccc(Br)c3)c2cc1OC [ONC0002251, pd153035 hydrochloride] — higher, 84.53%

— publication PMC12670160, “A drug-repurposing screen of FDA- and EMA-approved drugs identifies two NF-κB inhibitors active against eumycetoma” (Journal of Antimicrobial Chemotherapy, 2025)
